Results taken from EP1865001A1.
No constants are given. Whether binding was seen depends on the method and setting. For some of these results: In cells and extracts the contact can be indirect. Some binding calls cover weakened binding; strength is not graded here. For some of these results: Sequences can lack the tags named with a protein.

By UniProt entry, the sequences of proteins in these tests, tags left out. Residues count along the entry.
UniProt P35222, residues 2-781: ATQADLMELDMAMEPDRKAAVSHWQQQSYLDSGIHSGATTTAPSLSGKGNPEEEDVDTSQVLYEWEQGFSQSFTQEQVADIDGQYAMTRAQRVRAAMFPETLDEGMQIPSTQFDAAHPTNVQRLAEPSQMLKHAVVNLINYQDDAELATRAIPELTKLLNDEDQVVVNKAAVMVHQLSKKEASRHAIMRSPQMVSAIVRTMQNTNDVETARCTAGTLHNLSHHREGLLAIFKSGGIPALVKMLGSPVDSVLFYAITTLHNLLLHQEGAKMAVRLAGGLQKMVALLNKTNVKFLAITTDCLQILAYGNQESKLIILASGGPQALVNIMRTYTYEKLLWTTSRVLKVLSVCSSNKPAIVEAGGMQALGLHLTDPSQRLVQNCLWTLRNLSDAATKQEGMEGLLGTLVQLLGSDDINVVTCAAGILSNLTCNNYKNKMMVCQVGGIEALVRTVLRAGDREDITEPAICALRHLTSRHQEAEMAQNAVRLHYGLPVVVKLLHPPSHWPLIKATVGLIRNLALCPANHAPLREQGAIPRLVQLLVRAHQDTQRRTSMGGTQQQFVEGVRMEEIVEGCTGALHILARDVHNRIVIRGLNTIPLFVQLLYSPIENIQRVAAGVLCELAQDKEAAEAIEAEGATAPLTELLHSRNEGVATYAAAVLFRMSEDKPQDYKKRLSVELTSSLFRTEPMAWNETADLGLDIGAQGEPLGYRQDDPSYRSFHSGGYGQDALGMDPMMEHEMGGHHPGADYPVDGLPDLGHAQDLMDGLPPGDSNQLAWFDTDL

Assays:
[1] = target: T1, EpCAM (epithelial cell adhesion molecule), full-length (UniProt P16422); assay: co-immunoprecipitation with EpCAM from HEK293 stable transfectants, immunoblot
T1 sequence (looked up): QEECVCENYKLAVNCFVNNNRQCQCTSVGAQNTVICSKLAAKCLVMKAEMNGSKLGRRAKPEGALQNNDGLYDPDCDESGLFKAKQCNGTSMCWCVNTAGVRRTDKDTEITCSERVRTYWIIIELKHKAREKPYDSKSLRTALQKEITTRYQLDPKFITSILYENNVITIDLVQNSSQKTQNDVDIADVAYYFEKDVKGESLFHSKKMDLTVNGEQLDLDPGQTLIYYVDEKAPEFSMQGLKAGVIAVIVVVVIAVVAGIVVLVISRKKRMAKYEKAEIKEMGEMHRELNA

[2] = target: T1, EpCAM (epithelial cell adhesion molecule), full-length; assay: co-immunoprecipitation, PS-2 N-terminal fragment detected (Figure 2A)
[3] = target: T1, EpCAM (epithelial cell adhesion molecule), full-length; assay: co-immunoprecipitation from HEK293-EpCAM-HA-FHL2 cells; the filing calls this interaction supposedly indirect via FHL2
[4] = target: T1, EpCAM (epithelial cell adhesion molecule), full-length; assay: co-immunoprecipitation from HEK293-EpCAM-HA-FHL2 cells
[5] = target: β-catenin (endogenous) (human (HEK293 human embryonic kidney cells)) (UniProt P35222); assay: as above
[6] = target: T1, EpCAM (epithelial cell adhesion molecule), full-length; assay: reciprocal co-immunoprecipitation from HEK293 transfectants
[7] = target: T2, EpIC (intracellular domain of EpCAM) as yeast two-hybrid bait in pGBKT7 (UniProt P16422); assay: yeast two-hybrid
T2 sequence (looked up): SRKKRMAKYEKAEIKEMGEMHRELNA

[8] = target: T1, EpCAM (epithelial cell adhesion molecule), full-length; assay: co-immunoprecipitation of cell-free translated proteins (TNT) with EpEX-specific antibodies
[9] = target: T1, EpCAM (epithelial cell adhesion molecule), full-length; assay: reciprocal co-immunoprecipitation from whole cell lysates of HEK293-EpCAM cells
[10] = target: T1, EpCAM (epithelial cell adhesion molecule), full-length; assay: GST pull-down of EpCAM from HeLa cell extracts

In the case of “presenilin-2 (PS-2) (from UniProt P49810 1-297) (enzyme)”, the binding [1] is reported as “binds” and the binding [2] is reported as “binds”.

“β-catenin (endogenous) (from UniProt P35222 2-781)” was tested, and the binding [3] was “binds”.

B1: endogenous FHL2 (protein, UniProt Q14192 1-279, looked up)
chain: MTERFDCHHCNESLFGKKYILREESPYCVVCFETLFANTCEECGKPIGCDCKDLSYKDRHWHEACFHCSQCRNSLVDKPFAAKEDQLLCTDCYSNEYSSKCQECKKTIMPGTRKMEYKGSSWHETCFICHRCQQPIGTKSFIPKDNQNFCVPCYEKQHAMQCVQCKKPITTGGVTYREQPWHKECFVCTACRKQLSGQRFTARDDFAYCLNCFCDLYAKKCAGCTNPISGLGGTKYISFEERQWHNDCFNCKKCSLSLVGRGFLTERDDILCPDCGKDI
For B1, the binding [4] was “binds”, the binding [5] was “binds” and the binding [6] was “binds”.

B2: FHL2 cDNA clone from the HEK293 cDNA bank in pACT2 (yeast two-hybrid prey) (protein, UniProt Q14192 1-279, looked up, not shown: large carriers)
chain: B1 chain
With B2 the binding [7] was “binds”.

B3: HA-tagged FHL2 (protein, UniProt Q14192 1-279, looked up, not shown: small tags and cut ends)
chain: B1 chain
For B3, the binding [8] was “binds” and the binding [9] was “binds”.

B4: wild-type FHL2 as recombinant GST-fusion (protein, UniProt Q14192 1-279, looked up, not shown: a dimerising Fc or GST)
chain: B1 chain
For B4, the binding [10] was “binds”.
